Measurements as given in PubChem BioAssay AID2685 (National Center for Advancing Translational Sciences (NCATS), 2010).
Some of the results follow. Shown are side measurements of this screen, not its main read-out; they come without a call. Most of these compounds were active or inconclusive in the main read-out, so they are no random draw. Potencies come from curve fits of mixed quality, noted in brackets.

Assay: qHTS Assay for Lipid Storage Modulators in Drosophila S3 Cells;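 as to cell number change: cells counted by Cell Tracker Red CMTPX staining in the red channel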
Conditions: BODIPY lipid droplet fluorescence, 18-24 h; for cell number change: measured here: cell count max response, cells fed with added oleic acid
Outline: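 Laser-scanning cytometry quantifies lipid droplet accumulation (500–530 nm total intensity; droplet/cell object ratio) in oleic acid-fed (400 uM added) Drosophila S3 cells treated with a concentration series. 20 uM Triacsin C defined 100% inhibition.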

[1] = measured here: lipid fluorescence (Fed channel) AC50, cells fed with added oleic acid
[2] = measured here: cell number channel AC50, cells fed with added oleic acid

Row | SMILES | cell number change [%] | AC50 [1] | AC50 [2]
1 | O=C(NNC(=O)c1cc(F)c(F)cc1Cl)c1ccc(NS(=O)(=O)c2cccs2)cc1 | 5.49 |  | 
2 | N=C1C(c2nc(-c3ccc(Cl)cc3)cs2)=C(O)CN1CCCN1CCOCC1 | -24.9 | 2.31 µM [rising, partial curve] | 
3 | CN1CCN(c2ccc(S(=O)(=O)N3CCCCC3)cc2NC(=O)COc2ccc(F)cc2)CC1 | 92.6 |  | 16.4 µM [rising, partial curve]
4 | CN1CCN(c2ccc(NC(=O)COc3ccccc3[N+](=O)[O-])cc2)CC1 | -30.4 |  | 
5 | OCC(CO)(CO)N=Cc1cc(Br)ccc1O | 26.7 | 20.6 µM [rising, single point] | 0.731 µM [rising, full curve, poor fit]
6 | Cc1cccc(NC(=S)NCC23C=CC(O2)C2C(=O)N(c4ccc(Cl)cc4)C(=O)C23)c1 (stereo not drawn) | -32.5 |  | 14.6 µM [falling, partial curve, poor fit]
7 | CCn1c2ccccc2c2cc(/C(C)=N/O)ccc21 | -25.7 | 29.1 µM [falling, single point] | 
8 | Cc1c(NC(=O)c2ccco2)c(=O)n(-c2ccccc2)n1C | 32.8 |  | 32.6 µM [rising, single point]
9 | O=S(=O)(Nc1ccccc1O)c1ccc(Cl)nc1 | 19.6 | 0.259 µM [rising, partial curve, poor fit] | 
10 | CN1C(=O)c2cccc(NC(=O)Cc3ccccc3)c2C1=O | 8.59 |  | 
11 | O=P(O)(C(O)c1ccccc1)C(O)c1ccccc1 (stereo not drawn) | 26.6 | 0.517 µM [falling, single point] | 
12 | Cc1cc(C)cc(OC(C)C(=O)NCCCn2ccnc2)c1 (stereo not drawn) | -2.63 |  | 
13 | CCOc1ccc(NC(=S)NC23CC4CC(CC(C4)C2)C3)cc1 | -5.61 | 29.1 µM [rising, single point] | 
14 | CCc1ccc(N(CC(=O)NC2CCCC2)S(=O)(=O)c2c(C)noc2C)cc1 | 18.9 | 29.1 µM [rising, single point] | 
15 | O=C(CCCSc1nc2ccccc2[nH]1)NCc1ccccc1 | -13.9 | 7.31 µM [falling, partial curve, poor fit] | 
16 | Cn1c(SCc2ccc(Br)cc2)nc2c(c1=O)SCC2 | 10.6 |  | 
17 | CCCOc1ccc(/C(CC)=N/NC(=O)C2(C)CC2(Br)Br)cc1 (stereo not drawn) | 5.02 | 0.206 µM [rising, full curve, poor fit] | 
18 | CCC(=NC(CC)CO)C1=C(O)CC(C)(C)CC1=O (stereo not drawn) | -6.98 |  | 
19 | Cc1cc(NC(=O)COC(=O)C2CC(=O)N(c3ccc(C)c(Cl)c3)C2)no1 (stereo not drawn) | 2.99 |  | 
20 | CN(C(=O)COC(=O)C1=COCCO1)C1(C#N)CCCCC1 | 35 | 25.9 µM [rising, single point] | 
21 | COc1cccc(Oc2ccc(N/C=C/C(=O)C(C)(C)C)cc2)c1 | 37.9 |  | 13 µM [rising, partial curve, poor fit]

Row | SMILES | cell number change [%] | AC50 [1] | AC50 [2]
22 | CCN(CC)CCN(Cc1cc2cc3c(cc2[nH]c1=O)OCO3)C(=S)NCCCN(C)C | 16.6 | 0.0517 µM [rising, full curve, poor fit] | 
23 | Cc1cccc2cc(CN(Cc3ccco3)C(c3nnnn3CCc3ccccc3)C(C)C)c(=O)[nH]c12 (stereo not drawn) | -31.4 | 7.31 µM [falling, partial curve] | 
24 | Cc1c(NC=C(C#N)C#N)c(=O)n(-c2ccccc2)n1C | -38.7 | 16.4 µM [falling, single point] | 10.3 µM [falling, partial curve, poor fit]
25 | Cn1cnnc1SCC(=O)NC1CCCN(Cc2ccc(Cl)cc2)C1 (stereo not drawn) | 50.9 |  | 
26 | Cc1cc(=O)n2nc(N3CCCC(C(=O)N4CCN(c5ccccc5)CC4)C3)sc2n1 (stereo not drawn) |  |  | 1.16 µM [falling, single point]
27 | Cc1ccc(C)c2c1cc(C)c1nnc(SCC(=O)Nc3nc4c(s3)CCCC4)n12 | -4.55 | 6.51 µM [falling, single point] | 
28 | O=C(NCc1ccc(F)cc1)c1cc(C(=O)C2CC2)c[nH]1 | -16.7 | 0.116 µM [rising, full curve, poor fit] | 
29 | O=C(CCCN=C1NS(=O)(=O)c2ccccc21)OCc1ccccc1 |  | 6.51 µM [falling, partial curve, poor fit] | 6.51 µM [falling, partial curve, poor fit]
30 | CCC(C)C(=O)N1c2ccccc2C(=C2SC(C(=O)OC)=C(C(=O)OC)S2)C(=S)C1(C)C (stereo not drawn) | -157 | 7.31 µM [falling, partial curve] | 7.31 µM [falling, partial curve]
31 | CC1(C)CC(=O)C(C=NC2CCCCC2)=C(O)C1 | -60.7 | 0.146 µM [falling, full curve] | 0.0184 µM [falling, full curve]
32 | COc1cc(NC(=O)Nc2cccc([N+](=O)[O-])c2)cc(OC)c1 | -43.6 | 35.5 µM [falling, single point] | 35.5 µM [falling, single point]
33 | Cc1cc(C(=O)CN2CC(C)OC(C)C2)c(C)n1-c1ccccc1 (stereo not drawn) | 24.8 | 32.6 µM [rising, single point] | 
34 | CCCCn1c(N)c(N(CCOC)C(=O)CSCc2ccc(Cl)c(Cl)c2)c(=O)[nH]c1=O | 29.6 | 1.84 µM [rising, partial curve] | 
35 | COc1ccc(NC(=O)CSc2nnc(-c3ccccc3C)n2N)cc1 | 72.1 | 13 µM [rising, partial curve] | 29.1 µM [rising, single point]
36 | Cc1ccccc1C(=O)N=c1ccn(-c2nc3ccccc3nc2NS(=O)(=O)c2ccccc2)cc1 | 19.8 |  | 
37 | Cc1ccc2nc(C3CCN(C(=O)NCc4ccccc4)CC3)[nH]c2c1 | 1.94 |  | 
38 | O=C1[C@H]2[C@@H](c3ccc(Cl)cc3)N3C(=O)N(c4cccc(F)c4)C(=O)[C@@]3(Cc3ccc(Cl)cc3)[C@H]2C(=O)N1C1CCCCC1 | 73.5 | 18.4 µM [falling, single point] | 29.1 µM [rising, single point]
39 | Cc1ccn2c(=O)nc(SCC(=O)NCc3ccccc3Cl)nc2c1 | 20.5 | 0.116 µM [rising, full curve, poor fit] | 
40 | c1cnc(Sc2ccc3nnnn3n2)nc1 | 31.1 |  | 7.31 µM [falling, partial curve, poor fit]
41 | Cc1cc(C)n(CCSCC(=O)O)n1 | -19.3 | 6.51 µM [falling, single point] | 0.092 µM [falling, full curve, poor fit]
42 | COc1ccc(C)cc1NC(=O)c1cc2ccccc2o1 | -1.74 | 2.59 µM [rising, partial curve] | 

Row | SMILES | cell number change [%] | AC50 [1] | AC50 [2]
43 | O=C(c1cc(=O)[nH]c2ccccc12)N1CCN(c2cccc(C(F)(F)F)c2)CC1 | 29.4 |  | 
44 | CCCc1cc(=O)n2[nH]c(NCc3ccc(OC)cc3)nc2n1 | 34.8 |  | 0.291 µM [rising, full curve, poor fit]
45 | Cc1ccc(C(=O)NCCNC(=O)c2cnccn2)cc1 | -9.21 |  | 
46 | Cc1cccc(C)c1NC(=O)CN(C)C(=O)C1CC1C (stereo not drawn) | 28.3 | 14.6 µM [rising, partial curve] | 
47 | O=C(COC(=O)CCC1CCCC1)Nc1ccc(F)cc1 | -31.7 | 2.31 µM [rising, partial curve, poor fit] | 23.1 µM [falling, single point]
48 | O=C(O)c1nnn(-c2cc(C(F)(F)F)cc(C(F)(F)F)c2)c1-c1ccccc1 | -53.2 | 29.1 µM [falling, single point] | 29.1 µM [falling, single point]
49 | Nc1nnc(SCc2ccc(F)cc2Cl)s1 | 5.06 | 16.4 µM [rising, partial curve] | 
50 | O=C(CN1CCN(c2ccccc2)CC1)NC(=O)NCc1ccccc1 | -2.45 |  | 
51 | CN(C)CCCOC(=O)COc1ccc(C(C)(C)C)cc1 | -19.4 | 29.1 µM [falling, partial curve, poor fit] | 
52 | CCOc1cc(S(=O)(=O)NCc2ccco2)c(OCC)cc1-n1cnnn1 | -0.372 | 2.31 µM [rising, single point] | 
53 | COc1nc(C)ccc1-c1noc(-c2ccco2)n1 |  |  | 2.31 µM [rising, partial curve]
54 | COC(=O)c1ccc(NC(=O)CN2CCN(CC#N)CC2)cc1 | 75.4 |  | 29.1 µM [rising, single point]
55 | CC(OC(=O)c1cccc(-n2cnnn2)c1)C(=O)NC1(C#N)CCCCC1 (stereo not drawn) | 19.5 | 8.2 µM [rising, partial curve, poor fit] | 
56 | CN(C)CCCNC(=O)c1cc2sc3ccccc3c2s1 | 10.1 | 14.6 µM [rising, partial curve, poor fit] | 
57 | Cc1ccn(C(=O)c2ccc(NC(=O)C3CC3)cc2)n1 | -0.249 | 29.1 µM [rising, single point] | 
58 | CCCNC(=O)c1ccc(-c2nc3ccccc3s2)s1 | 35.5 | 3.66 µM [rising, partial curve] | 0.164 µM [rising, full curve, poor fit]
59 | O=C(O)c1nccnc1C(=O)Nc1ccc(Cl)cn1 |  | 0.00461 µM [rising, full curve, poor fit] | 
60 | Cc1cc(NC(=O)NCC(F)(F)F)no1 | -9.07 |  | 6.51 µM [falling, single point]
61 | Cc1ccc(CSCC(=O)N(C)CC(=O)Nc2cccc(F)c2)cc1 | 90.4 |  | 
62 | O=C(O)c1ccc(N2C(=O)C3C4c5ccccc5C(Br)(c5ccccc54)C3C2=O)cc1 (stereo not drawn) | -9.65 | 0.164 µM [falling, full curve, poor fit] | 

16 compounds out of the list, sorted by length of the SMILES, low to high:
Row | SMILES | cell number change [%] | AC50 [1] | AC50 [2]
49 | Nc1nnc(SCc2ccc(F)cc2Cl)s1 | 5.06 | 16.4 µM [rising, partial curve] | 
60 | Cc1cc(NC(=O)NCC(F)(F)F)no1 | -9.07 |  | 6.51 µM [falling, single point]
53 | COc1nc(C)ccc1-c1noc(-c2ccco2)n1 |  |  | 2.31 µM [rising, partial curve]
42 | COc1ccc(C)cc1NC(=O)c1cc2ccccc2o1 | -1.74 | 2.59 µM [rising, partial curve] | 
45 | Cc1ccc(C(=O)NCCNC(=O)c2cnccn2)cc1 | -9.21 |  | 
46 | Cc1cccc(C)c1NC(=O)CN(C)C(=O)C1CC1C (stereo not drawn) | 28.3 | 14.6 µM [rising, partial curve] | 
57 | Cc1ccn(C(=O)c2ccc(NC(=O)C3CC3)cc2)n1 | -0.249 | 29.1 µM [rising, single point] | 
54 | COC(=O)c1ccc(NC(=O)CN2CCN(CC#N)CC2)cc1 | 75.4 |  | 29.1 µM [rising, single point]
44 | CCCc1cc(=O)n2[nH]c(NCc3ccc(OC)cc3)nc2n1 | 34.8 |  | 0.291 µM [rising, full curve, poor fit]
50 | O=C(CN1CCN(c2ccccc2)CC1)NC(=O)NCc1ccccc1 | -2.45 |  | 
61 | Cc1ccc(CSCC(=O)N(C)CC(=O)Nc2cccc(F)c2)cc1 | 90.4 |  | 
52 | CCOc1cc(S(=O)(=O)NCc2ccco2)c(OCC)cc1-n1cnnn1 | -0.372 | 2.31 µM [rising, single point] | 
55 | CC(OC(=O)c1cccc(-n2cnnn2)c1)C(=O)NC1(C#N)CCCCC1 (stereo not drawn) | 19.5 | 8.2 µM [rising, partial curve, poor fit] | 
48 | O=C(O)c1nnn(-c2cc(C(F)(F)F)cc(C(F)(F)F)c2)c1-c1ccccc1 | -53.2 | 29.1 µM [falling, single point] | 29.1 µM [falling, single point]
43 | O=C(c1cc(=O)[nH]c2ccccc12)N1CCN(c2cccc(C(F)(F)F)c2)CC1 | 29.4 |  | 
62 | O=C(O)c1ccc(N2C(=O)C3C4c5ccccc5C(Br)(c5ccccc54)C3C2=O)cc1 (stereo not drawn) | -9.65 | 0.164 µM [falling, full curve, poor fit] | 

Ordered by length of the SMILES (falling): some entries from above
Row | SMILES | cell number change [%] | AC50 [1] | AC50 [2]
51 | CN(C)CCCOC(=O)COc1ccc(C(C)(C)C)cc1 | -19.4 | 29.1 µM [falling, partial curve, poor fit] | 
47 | O=C(COC(=O)CCC1CCCC1)Nc1ccc(F)cc1 | -31.7 | 2.31 µM [rising, partial curve, poor fit] | 23.1 µM [falling, single point]
56 | CN(C)CCCNC(=O)c1cc2sc3ccccc3c2s1 | 10.1 | 14.6 µM [rising, partial curve, poor fit] | 
